Structures can show the parent of a compound that is named as a salt. This is one part of the list. Single values of this set are uncertain.
Test system: Peyronie's disease tunica albuginea primary fibroblasts
Experiment: inhibition of TGF-beta1-induced alpha-SMA expression (myofibroblast transformation), relative to TGF-beta1-only and untreated controls; higher = stronger inhibition of myofibroblast transformation
Details: 10 µM; TGF-beta1 10 ng/mL; 72 h

Row | Compound | inhibition of TGF-beta1-induced alpha-SMA expression
1 | O=C(O)C1(C(=O)O)CCC1.[NH2-].[NH2-].[Pt+2] [Carboplatin] | -11.1%
2 | CC1=C(C/C=C(\C)CCC[C@H](C)CCC[C@H](C)CCCC(C)C)C(=O)c2ccccc2C1=O [Vitamin K1] | 96%
3 | CCCCN1CCCC[C@H]1C(=O)Nc1c(C)cccc1C [Levobupivacaine HCl] | 10%
4 | Nc1ccc(C(=O)O)c(O)c1 [Sodium 4-Aminosalicylate] | 4.1%
5 | O=C1Nc2ccc(Cl)cc2[C@@](C#CC2CC2)(C(F)(F)F)O1 [Efavirenz] | 5.24%
6 | O=C(O)c1ccccc1Nc1cccc(C(F)(F)F)c1 [Flufenamic acid] | 51%
7 | Clc1ccc(C(c2ccccc2Cl)C(Cl)Cl)cc1 (stereo not given) [Mitotane] | 8.88%
8 | O=C1O[C@H]([C@@H](O)CO)C(O)=C1O [Vitamin C] | 25.1%
9 | Cc1cccc(C)c1OCC(=O)N[C@@H](Cc1ccccc1)[C@@H](O)C[C@H](Cc1ccccc1)NC(=O)[C@H](C(C)C)N1CCCNC1=O [Lopinavir] | -8.96%
10 | Nc1ccc(/N=N/c2ccccc2)c(N)n1 [Phenazopyridine HCl] | -21.4%
11 | CCC(=O)O[C@]1(C(=O)SCF)[C@H](C)C[C@H]2[C@@H]3C[C@H](F)C4=CC(=O)C=C[C@]4(C)[C@@]3(F)[C@@H](O)C[C@@]21C [Fluticasone propionate] | 70.2%
12 | CN1CCC(=C2c3ccccc3CCn3c(C=O)cnc32)CC1 [Alcaftadine] | 28.5%
13 | Nc1nc(/C(=C/CC(=O)O)C(=O)N[C@@H]2C(=O)N3C(C(=O)O)=CCS[C@H]23)cs1 [Ceftibuten dihydrate] | 0.591%
14 | CC(C)[C@H](O)C(=O)N[C@@H](C)C(=O)N[C@@H]1C(=O)N(C)CCc2ccccc21 | -327%
15 | Cc1cn(-c2cc(NC(=O)c3ccc(C)c(Nc4nccc(-c5cnccn5)n4)c3)cc(C(F)(F)F)c2)cn1 [Radotinib] | 21.6%
16 | CCc1nn(CCCN2CCN(c3cccc(Cl)c3)CC2)c(=O)n1CCOc1ccccc1 [Nefazodone hydrochloride] | 14.6%
17 | O=C(c1ccc(F)c(F)c1Nc1ccc(I)cc1F)N1CC(O)([C@@H]2CCCCN2)C1 [Cobimetinib (GDC-0973, RG7420)] | -45.9%
18 | O=S(=O)(c1cccc2cnccc12)N1CCCNCC1 [Fasudil (HA-1077) HCl] | -28.3%
19 | CC(NCCc1ccc(O)cc1)C(O)c1ccc(O)cc1 (stereo not given) [Ritodrine HCl] | 12.3%
20 | C[N+](C)(CCOc1ccccc1)Cc1ccccc1.O=C([O-])c1cc2ccccc2cc1O [Bephenium Hydroxynaphthoate] | -0.471%
21 | C[C@H](Nc1ncnc2nc[nH]c12)c1cc2cccc(Cl)c2c(=O)n1-c1ccccc1 [Duvelisib (IPI-145, INK1197)] | 7.73%
22 | CCC1(C)CC(=O)NC1=O (stereo not given) [Ethosuximide] | -3.75%
23 | O=[N+]([O-])c1ccc(O)c2ncccc12 [Nitroxoline] | 62.1%

Row | Compound | inhibition of TGF-beta1-induced alpha-SMA expression
24 | N#CC[C@H](C1CCCC1)n1cc(-c2ncnc3[nH]ccc23)cn1 | -8.86%
25 | N#CC[C@H](C1CCCC1)n1cc(-c2ncnc3[nH]ccc23)cn1 [Ruxolitinib Phosphate] | -3.46%
26 | CCCc1nn(C)c2c(=O)[nH]c(-c3cc(S(=O)(=O)N4CCN(C)CC4)ccc3OCC)nc12 [Sildenafil Mesylate] | 22.4%
27 | CCCc1nn(C)c2c(=O)[nH]c(-c3cc(S(=O)(=O)N4CCN(C)CC4)ccc3OCC)nc12 [Sildenafil] | 93.1%
28 | CCCc1nn(C)c2c(=O)[nH]c(-c3cc(S(=O)(=O)N4CCN(C)CC4)ccc3OCC)nc12 [Sildenafil Citrate] | 21.9%
29 | NNC(=O)c1ccncc1.Nc1ccc(C(=O)O)c(O)c1 [Pasiniazid] | 0.473%
30 | CCC(C)(C)C(=O)O[C@H]1C[C@@H](C)C=C2C=C[C@H](C)[C@H](CC[C@@H]3C[C@@H](O)CC(=O)O3)[C@H]21 [Simvastatin] | 11.6%
31 | CCNC1(C(N)=O)CCN(c2ncnc3c2nc(-c2ccccc2Cl)n3-c2ccc(Cl)cc2)CC1 | 32.7%
32 | CCOC(=O)CC(=O)N1CCSC1COc1ccccc1OC (stereo not given) [Moguisteine] | 19.1%
33 | CC(=O)Oc1ccc(C(c2ccc(OC(C)=O)cc2)c2ccccn2)cc1 [Bisacodyl] | 39%
34 | O=C(O)CCC(=O)c1ccc(-c2ccccc2)cc1 [Fenbufen] | -16%
35 | CCCCCCCCOc1ccccc1C(=O)Nc1ccc(C(=O)OCC[N+](C)(CC)CC)cc1 [Otilonium Bromide] | 11.4%
36 | CN1CCN2c3ccccc3Cc3ccccc3C2C1 (stereo not given) [Mianserin HCl] | -9.38%
37 | CCCCc1ncc(/C=C(\Cc2cccs2)C(=O)O)n1Cc1ccc(C(=O)O)cc1 [Eprosartan Mesylate] | -12.7%
38 | CN(C)CCc1c[nH]c2ccc(CS(=O)(=O)N3CCCC3)cc12 [Almotriptan Malate] | 10.3%
39 | CC(C)C[C@H](NC(=O)[C@@H](Cc1cccc2ccccc12)NC(=O)[C@H](Cc1ccc(O)cc1)NC(=O)[C@H](CO)NC(=O)[C@H](Cc1c[nH]c2ccccc12)NC(=O)[C@H](Cc1cnc[nH]1)NC(=O)[C@@H]1CCC(=O)N1)C(=O)N[C@@H](CCCNC(=N)N)C(=O)N1CCC[C@H]1C(=O)NCC(N)=O [Nafarelin Acetate] | -3.54%
40 | O=C(NC(Cc1cc(=O)[nH]c2ccccc12)C(=O)O)c1ccc(Cl)cc1 (stereo not given) [Rebamipide] | 7.42%
41 | C[N+](C)(C)CCOC(N)=O [Carbachol] | 34.1%
42 | COC(=O)/C=C/C(=O)OC [Dimethyl Fumarate] | 25.4%
43 | CCOC(=O)C1=C(C)NC(C)=C(C(=O)OC)C1c1cccc(Cl)c1Cl (stereo not given) [Felodipine] | -3.85%
44 | CO[C@H]1C[C@H](O[C@@H]2/C(C)=C/C[C@@H]3C[C@@H](C[C@]4(CC[C@H](C)[C@@H](C5CCCCC5)O4)O3)OC(=O)[C@@H]3C=C(C)/C(=N/O)[C@H]4OC/C(=C\C=C\[C@@H]2C)[C@]43O)O[C@@H](C)[C@@H]1O [Selamectin] | 3.85%
45 | C[C@H](CCC(=O)O)[C@H]1CC[C@H]2[C@@H]3C(=O)C[C@@H]4CC(=O)CC[C@]4(C)[C@H]3CC(=O)[C@]12C [Dehydrocholic acid] | 18.4%

Given with each value named: entries from further up.
Clc1ccc(C(c2ccccc2Cl)C(Cl)Cl)cc1 (stereo not given) [Mitotane]
  inhibition of TGF-beta1-induced alpha-SMA expression: 8.88%
Cc1cccc(C)c1OCC(=O)N[C@@H](Cc1ccccc1)[C@@H](O)C[C@H](Cc1ccccc1)NC(=O)[C@H](C(C)C)N1CCCNC1=O [Lopinavir]
  inhibition of TGF-beta1-induced alpha-SMA expression: -8.96%
C[N+](C)(CCOc1ccccc1)Cc1ccccc1.O=C([O-])c1cc2ccccc2cc1O [Bephenium Hydroxynaphthoate]
  inhibition of TGF-beta1-induced alpha-SMA expression: -0.471%

— the supplement of paper PMC9744312
